# According to patent US20180256617A1, “METHODS FOR EXTENDING LIFESPAN AND METHODS OF SCREENING KNOWN PHARMACOLOGICAL AGENTS FOR NEW USES” (Longevica Therapeutics Inc., priority 2015, published 2018):
# Some entries share one result that the patent states for a list of compounds.
# Test system: B6C3F1/J mice
# Test: Lifespan screening of compounds given via drinking water to B6C3F1/J mice
# Assay type: in vivo, mouse
# Conditions: compound in drinking water from approx. 5 months of age throughout lifespan, 0.05<p<0.06
row,Structure (SMILES),increase of mouse lifespan relative to controls
1,"O=C(O)CN(CCN(CC(=O)O)CC(=O)O)CCN(CC(=O)O)CC(=O)O [DTPA, pentetic acid]",over 15%
2,CC(C)[C@@H](N)C(=O)O [D-valine],over 15%
